The target of data set [1] is T1, NF-kappaB p50 (Homo sapiens) (UniProt P19838).
T1 sequence (looked up, limits assumed): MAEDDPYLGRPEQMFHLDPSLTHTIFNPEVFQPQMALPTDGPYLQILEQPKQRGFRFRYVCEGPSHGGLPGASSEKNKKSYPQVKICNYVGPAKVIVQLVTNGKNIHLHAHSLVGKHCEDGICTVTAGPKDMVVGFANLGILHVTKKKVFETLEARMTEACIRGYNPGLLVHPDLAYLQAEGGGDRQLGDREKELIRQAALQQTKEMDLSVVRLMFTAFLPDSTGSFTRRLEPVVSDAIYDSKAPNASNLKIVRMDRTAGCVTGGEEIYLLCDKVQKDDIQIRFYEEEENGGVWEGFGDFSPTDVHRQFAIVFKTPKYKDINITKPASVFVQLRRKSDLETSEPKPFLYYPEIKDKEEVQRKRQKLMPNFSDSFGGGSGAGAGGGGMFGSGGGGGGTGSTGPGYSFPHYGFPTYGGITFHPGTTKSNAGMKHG
The experiment in a line: binding assay. The following applies: purified recombinant protein, protein details: Promega.

By UniProt entry, the sequences of proteins in these tests, tags left out. Residues count along the entry.
UniProt Q15554, 87-542, stated change not applied: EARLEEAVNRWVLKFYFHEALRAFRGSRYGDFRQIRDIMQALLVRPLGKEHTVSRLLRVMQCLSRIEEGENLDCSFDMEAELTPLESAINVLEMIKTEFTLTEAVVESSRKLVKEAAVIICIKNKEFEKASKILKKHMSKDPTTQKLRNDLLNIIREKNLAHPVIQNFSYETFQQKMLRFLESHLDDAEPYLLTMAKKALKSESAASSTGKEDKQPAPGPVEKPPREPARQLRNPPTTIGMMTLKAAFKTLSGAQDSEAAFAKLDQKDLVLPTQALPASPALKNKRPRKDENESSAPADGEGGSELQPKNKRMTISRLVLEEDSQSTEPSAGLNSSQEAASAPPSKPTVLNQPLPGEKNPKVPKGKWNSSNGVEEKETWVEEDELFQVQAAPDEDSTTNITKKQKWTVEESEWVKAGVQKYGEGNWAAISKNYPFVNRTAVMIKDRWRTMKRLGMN
UniProt P08047, 2-785: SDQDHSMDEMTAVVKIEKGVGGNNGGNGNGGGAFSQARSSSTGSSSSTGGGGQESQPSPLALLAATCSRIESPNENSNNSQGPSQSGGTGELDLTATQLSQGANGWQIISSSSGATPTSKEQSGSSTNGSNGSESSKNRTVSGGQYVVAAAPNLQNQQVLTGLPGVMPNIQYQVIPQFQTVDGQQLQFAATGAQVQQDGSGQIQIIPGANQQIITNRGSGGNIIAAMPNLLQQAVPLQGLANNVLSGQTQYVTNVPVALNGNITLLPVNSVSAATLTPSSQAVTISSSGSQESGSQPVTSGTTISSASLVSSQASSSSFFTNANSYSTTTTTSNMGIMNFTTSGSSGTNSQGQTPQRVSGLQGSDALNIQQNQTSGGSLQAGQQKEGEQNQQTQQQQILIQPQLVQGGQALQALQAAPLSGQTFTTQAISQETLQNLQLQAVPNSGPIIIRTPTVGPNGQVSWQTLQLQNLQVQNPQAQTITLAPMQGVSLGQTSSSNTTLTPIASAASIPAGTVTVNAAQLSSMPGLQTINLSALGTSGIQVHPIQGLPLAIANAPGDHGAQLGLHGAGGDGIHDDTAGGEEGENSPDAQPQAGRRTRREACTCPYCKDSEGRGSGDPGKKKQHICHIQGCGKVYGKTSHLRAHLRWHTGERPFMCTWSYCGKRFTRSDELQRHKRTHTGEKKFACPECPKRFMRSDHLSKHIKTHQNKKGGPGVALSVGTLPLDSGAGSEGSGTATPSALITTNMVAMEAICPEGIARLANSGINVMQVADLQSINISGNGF
UniProt P05412, whole entry: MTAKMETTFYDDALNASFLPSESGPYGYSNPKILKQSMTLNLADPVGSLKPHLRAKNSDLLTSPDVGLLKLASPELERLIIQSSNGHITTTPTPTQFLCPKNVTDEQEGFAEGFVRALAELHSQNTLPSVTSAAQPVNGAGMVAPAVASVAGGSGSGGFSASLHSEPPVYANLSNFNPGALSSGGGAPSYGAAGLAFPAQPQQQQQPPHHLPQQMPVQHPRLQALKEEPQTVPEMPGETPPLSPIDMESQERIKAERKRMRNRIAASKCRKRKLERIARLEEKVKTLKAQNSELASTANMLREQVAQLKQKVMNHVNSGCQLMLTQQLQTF

Data set [2] deals with TRF2 deltaB (residues 45-500) (Homo sapiens) (UniProt Q15554). The experiment in a line: binding assay. The conditions noted are these: 150 mM KCl, purified recombinant protein, protein details: His tag, Sf9 baculovirus.
Data set [3] deals with SP1 (Homo sapiens) (UniProt P08047). The experiment in a line: binding assay. The conditions noted are these: purified recombinant protein, protein details: Promega.
For data set [4], the target named is AP1 (c-Jun) (Homo sapiens) (UniProt P05412). The experiment in a line: binding assay. The following applies: purified recombinant protein, protein details: Promega.
In data set [5] the target is T1, NF-kappaB p50 (Homo sapiens). The experiment in a line: competition with a labelled probe. The conditions noted are these: purified recombinant protein; protein details: Promega; variant of NFcpt decoy (NF01/02).

The exact form of at least one protein or probe is not confirmed. For some assays here: No signal at the amounts used counts as a negative. For some assays here: Where a protein sequence is shown, tags need not be part of it.

Turning to “AGTTGAGGGGACTTTCCCAGGCCTCACGCACACCAGC / CCCTCCTTGCTCGTCTTGCCTGGGAAAGTCCCCTCAACT [31F/42]”, the binding result in data set [1] (strand-exchange assay with 32D/41, inhibited by aurothioglucose and NF decoy, 25 C, label: 5' fluorescein on SEQ 45) was “binds”.
In the case of “AGTTGAGGGGACTTTCCCAGGCGACTCACTATAGGCGGTGTCTCGCTCGC / GGGAATGGTGTGGTGCCTATAGTGAGTCGCCTGGGAAAGTCCCCTCAACT [NF01F/14D]”, in data set [1] (fluorescence lowered about 30% with NF02/13, 50% or more with mismatched partners, 37 C, label: 5' fluorescein on SEQ 37, 3' DABCYL on SEQ 38), the binding result is reported as “binds”.
As for “AGTTGAGGGGACTTTCCCAGGCGACTCACTATAGGCGGTGTCTCGCTCGC / GGGAATGGTGTGGTGCCTATAGTGAGTCGCCTGGGAAAGTCCCCTCAACT [NFkB duplex 01F/14D]”, the binding result in data set [1] (strand-exchange fluorescence assay, 30 C, label: 5' 6-FAM on SEQ 5, 3' DABCYL on SEQ 8) was “binds”.
Consider “AGTTGAGGGGACTTTCCCAGGCGACTCACTATAGGCGGTGTCTCGCTCGC / GGGAATGGTGTGGTGCCTATAGTGAGTCGCCTGGGAAAGTCCCCTCAACT [NFkB duplex 01F/14]”, for which, in data set [1] (strand-exchange fluorescence assay, p50 dose-dependent, 30 C, ZnSO4 1 uM, label: 5' 6-FAM on SEQ 1), the binding result was “binds”.
For the sequence “AGTTGAGTTAGCGTTAGCGTTAGCGTTAGCGCAGGCGGTGTCTCGCTCGC / GGGAATGGTGTGGTGCCTGCGCTAACGCTAACGCTAACGCTAACTCAACT [T13C/16]”, the binding result in data set [2] (strand-exchange fluorescence assay with T14B/15, 25 C, label: 5' Cy3 on SEQ 25, variant of T01C/06) was “no binding”.
Turning to “AGTTGAGTTAGGGTTAGGGTTAGGGTTAGGGCAGGCGGTGTCTCGCTCGC / GGGAATGGTGTGGTGCCTGCCCTAACCCTAACCCTAACCCTAACTCAACT [T01C/06]”, the binding result in data set [2] (strand-exchange fluorescence assay with T02B/05, 25 C, label: 5' Cy3 on SEQ 21) is “binds”.
On to “ATTCGATCGGGGCGGGGCGACGAGCGGGAATGGACAGGTT / CGGTCAGAGAGTAGCCTGCTCGTCGCCCCGCCCCGATCGAAT [05C/08]”, for which the binding result in data set [3] (multiplexed strand-exchange assay with 06B/07, p50 also present, 25 C, label: 5' Cy3 on SEQ 65) is reported as “binds”.
“ATTCGATCGGGGCGGGGCGACGAGCGGGAATGGACAGGTT / CGGTCAGAGAGTAGCCTGCTCGTCGCCCCGCCCCGATCGAAT [SP05C/08B]”: the binding result in data set [3] (strand exchange suppressed, more with mismatched partners, 25 C, label: 5' Cy3 on SEQ 29, 3' BHQ1 on SEQ 30) is “binds”.
For “CGCTTGATGAGTCAGCCGGAAGTGGTTGGGTAAGGG / ATATCGTCCTGTCCGTTCCGGCTGACTCATCAAGCG [AP01C/04B]”, the binding result is listed as “binds” in data set [4] (strand-exchange fluorescence assay with AP02/03, 30 C, MgCl2, label: 5' Cy5 on SEQ 13, 3' BHQ3 on SEQ …) and “no binding” in data set [3] (strand-exchange fluorescence assay with AP02/03, 30 C, Zn, label: 5' Cy5 on SEQ 13, 3' BHQ3 on SEQ 16).
For “CTCACGCACACCAGCGGGGACTTTCCCAGTATATAAAGACGAGCAAGCGG / GGTCAGAGAGTAGCCTATATACTGGGAAAGTCCCCGCTGGTGTGCGTGAG / CCGCTTGCTCGTCTTTATATACTGTGAACGTCACCAACCTGTCCATTCCC / GGGAATGGACAGGTTGAGGACTTACCCAGTATATAGGCTACTCTCTGACC [integrated tetramer Af/B5/C4/Dd]”, the binding result in data set [1] (fluorescence suppressed by p50, 25 C, folded or branched DNA) was “binds”.
“GCACTAAGGACTTTGCGCCACG (double strand) [NF03/04 decoy]”: the binding result in data set [5] is recorded as “no binding”.
For “GGGATTCGATCGGGGCGGGGCGACGAGCGTGGTTGGGTAAGGG / GGGAATGGTGTGGTGGCTCGTCGCCCCGCCCCGATCGAATCCC [SP01A/04B]”, the binding result in data set [4] (strand-exchange fluorescence assay with SP02/03, 30 C, label: 5' Alexa 647 on SEQ 17, 3' BHQ3 on SEQ 20) is recorded as “no binding”; in data set [3] (strand-exchange fluorescence assay with SP02/03, 30 C, Zn, label: 5' Alexa 647 on SEQ 17, 3' BHQ3 on SEQ 20) it was “binds”.

These data come from US20110033951.
